Source: PubChem BioAssay AID1259308 (NCATS, 2017)

- Aim: 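Knock-downs that increase output of a recombinant reporter protein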 (primary screen)
- Cell system: human HEK293 embryonic kidney cells stably expressing firefly luciferase (HEK-CMV-Luc2-Hygro)
- Knock-down reagent: single siRNA against human genes, 0.8 pmol siRNA per well
- Time to read-out: 72 h
- Read-out: 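Reporter luminescence and viable-cell signal on separate replicate plates, given as percent of non-targeting control and median/MAD z-scores, plus per-cell luciferase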
- Scale: total luciferase, z-score: higher = more reporter protein produced
- Call rule: 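Active when the median/MAD z-score for overall luciferase is greater than 3; a gene was taken forward for validation with new siRNAs if at least two of its three siRNAs passed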
- Calls: active = raised luciferase; inactive = no rise
The whole screen tested about 59,000 reagents; this is an unselected part. Of all reagents, about 1,510 (2.6%) are marked active. 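Calls use total luciferase alone and ignore viability, so some active siRNAs may act by altering cell number.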 The numbers tell different reagents against one gene apart. Not all columns of the deposit are shown.

target	siRNA no.	total luciferase, z-score	call
WBP2 (WW domain binding protein 2)	1	1.14	inactive
WBP2 (WW domain binding protein 2)	2	-0.232	inactive
WBP2 (WW domain binding protein 2)	3	-0.225	inactive
PLA2G6 (phospholipase A2 group VI)	1	-0.18	inactive
PLA2G6 (phospholipase A2 group VI)	2	-1.15	inactive
PLA2G6 (phospholipase A2 group VI)	3	0.404	inactive
TLN2-AS2 (TLN2 antisense RNA 2)	1	1.07	inactive
TLN2-AS2 (TLN2 antisense RNA 2)	2	-1.18	inactive
TLN2-AS2 (TLN2 antisense RNA 2)	3	1.28	inactive
RTN3 (reticulon 3)	1	-0.318	inactive
RTN3 (reticulon 3)	2	0.935	inactive
RTN3 (reticulon 3)	3	0.541	inactive
SLC51B (SLC51 subunit beta)	1	5.22	active
SLC51B (SLC51 subunit beta)	2	1.17	inactive
SLC51B (SLC51 subunit beta)	3	-0.265	inactive
C1QL4 (complement C1q like 4)	1	0.368	inactive
C1QL4 (complement C1q like 4)	2	0.0493	inactive
C1QL4 (complement C1q like 4)	3	-0.866	inactive
CEP152 (centrosomal protein 152)	1	-0.0309	inactive
CEP152 (centrosomal protein 152)	2	-1.43	inactive
CEP152 (centrosomal protein 152)	3	0.727	inactive
CNTNAP1 (contactin associated protein 1)	1	-1.09	inactive
CNTNAP1 (contactin associated protein 1)	2	-1.35	inactive
CNTNAP1 (contactin associated protein 1)	3	3.56	active
HSD11B1 (hydroxysteroid 11-beta dehydrogenase 1)	1	0.544	inactive
HSD11B1 (hydroxysteroid 11-beta dehydrogenase 1)	2	0.389	inactive
HSD11B1 (hydroxysteroid 11-beta dehydrogenase 1)	3	1.43	inactive
SLITRK3 (SLIT and NTRK like family member 3)	1	-0.853	inactive
SLITRK3 (SLIT and NTRK like family member 3)	2	0.83	inactive
SLITRK3 (SLIT and NTRK like family member 3)	3	-1.33	inactive
NEUROD1 (neuronal differentiation 1)	1	-0.51	inactive
NEUROD1 (neuronal differentiation 1)	2	0.425	inactive
NEUROD1 (neuronal differentiation 1)	3	0.47	inactive
AMFR (autocrine motility factor receptor)	1	-0.344	inactive
AMFR (autocrine motility factor receptor)	2	-0.169	inactive
AMFR (autocrine motility factor receptor)	3	-0.156	inactive
VHLL (VHL like)	1	-1.73	inactive
VHLL (VHL like)	2	-0.314	inactive
VHLL (VHL like)	3	0.406	inactive

3 entries from above, arranged by “total luciferase, z-score”, ascending.
target	siRNA no.	total luciferase, z-score	call
NEUROD1 (neuronal differentiation 1)	1	-0.51	inactive
NEUROD1 (neuronal differentiation 1)	2	0.425	inactive
NEUROD1 (neuronal differentiation 1)	3	0.47	inactive
